Measurements as given in US12153062B2, “Method for estimating physical property of aqueous sample” (Kao Corporation, priority 2018, dated 2024).
Structures can show the parent of a compound that is named as a salt. At least one compound was matched to its structure with a doubt left.

Experiment: Amount of phase-changing probe 2-EHDG required until phase structure changes (Wm phase to Om phase + W phase); liquid physical property index read from calibration curve
Format: physicochemical
Settings: surfactant 100 mmol/kg, BDG 5 mass %, C16 isoparaffin 2 g per 100 g
Method: Using the following components, precursor samples and standard samples for preparing calibration curves were prepared, and using any of the following phase-changing probes, an amount of the phase-changing probe required until a phase structure of a standard sample changed was quantified for each of a plurality of surfactants (G). The calibration curves were prepared from the plurality of quantitative values obtained. • Surfactant (G): a plurality of polyoxyethylene lauryl ethers with different average numbers of added moles of the ethylene oxide • Oil component: an isoparaffin with an average number of carbons of 16 (hereinafter, referred to as C16 isoparaffin) • Phase-changing probe: 2-ethylhexyl diglycol or butyldiglycol
The concentration of surfactant (G) in each precursor sample was 200 mmol/kg (the balance was water).
The amount of the oil component added per 100 g of each precursor sample was determined to be 4 g by assigning 50 to X in the aforementioned formula (I).
For this standard sample, 2-ethylhexyl diglycol (hereinafter, sometimes also referred to as 2-EHDG) was used as the phase-changing probe, and an amount of the phase-changing probe required until a phase structure of the standard sample changed from a micellar solution phase (Wm phase) to a mixed system of a reversed micellar oil solution phase (Om phase) and a water phase (W phase) was taken as the quantitative value.
Note that, in either case, the ambient temperature when the phase-changing probe was added to the standard sample was 25° C. Further, in either case, the phase-changing probe was added to the standard sample under the condition of being stirred with a magnetic stirrer.
Note that the quantitative values and HLB values were entered into spreadsheet software “Excel” (manufactured by Microsoft Corporation) to be processed, thereby obtaining the calibration curves as regression lines (calibration curves 1 and 2). Calibration curves 1 and 2 are shown in Graph A (FIG. 1).
As the oil components, components shown in Table 3 were used; as the phase-changing probe, 2-EHDG was used; and the concentration of surfactant (G) in each precursor sample was 100 mmol/kg. Note that, in this example, the amount of an oil component added per 100 g of each precursor sample was determined to be 2 g by assigning 50 to X in the aforementioned formula (I).
A measurement sample was prepared by adding 2 g of any of the oil components shown in Table 3 per 100 g of the aqueous sample.
2-EHDG as the phase-changing probe was added to the measurement sample under the same conditions as those for preparing the calibration curves, and an amount of the phase-changing probe required until a phase structure changed was quantified.

With `CCCCCCCCCCCCOS(=O)(=O)O` [Sodium dodecyl sulfate] the “Quantitative value (g) of phase-changing probe (2-EHDG)” value (from here on “Quantitative value (g)”) (CaCl2 25 mmol/kg) was 14.72 g, the “Quantitative value (g)” value (CaCl2 50 mmol/kg) was 8.08 g and the “Quantitative value (g)” value (CaCl2 100 mmol/kg) was 3.32 g. The “Quantitative value (g)” value (CaCl2 150 mmol/kg) was 3.12 g, the “Quantitative value (g)” value (CaCl2 200 mmol/kg) was 2.80 g and the “Quantitative value (g)” value (CaCl2 400 mmol/kg) was 2.36 g. The “Quantitative value (g)” value (KCl 50 mmol/kg) was 18.24 g, the “Quantitative value (g)” value (KCl 100 mmol/kg) was 14.52 g and the “Quantitative value (g)” value (KCl 200 mmol/kg) was 9.96 g. For the same compound, the “Quantitative value (g)” value (KCl 400 mmol/kg) was 6.76 g, the “Quantitative value (g)” value (NaCl 50 mmol/kg) was 19.28 g and the “Quantitative value (g)” value (NaCl 100 mmol/kg) was 14.96 g. The “Quantitative value (g)” value (NaCl 200 mmol/kg) was 10.60 g and the “Quantitative value (g)” value (NaCl 400 mmol/kg) was 7.40 g.
